This is one part of the list. These are further read-outs of the screen, such as a control signal, another cell line or another target. No call is given for them. The list favours compounds with an active or inconclusive main result. Potencies come from curve fits of mixed quality, noted in brackets.
Assay: qHTS Assay for Lipid Storage Modulators in Drosophila S3 Cells;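 as to cell number change: cells counted by Cell Tracker Red CMTPX staining in the red channel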
Conditions: BODIPY lipid droplet fluorescence, 18-24 h; for cell number change: measured here: cell count max response, cells fed with added oleic acid
Procedure, shortened: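 Laser-scanning cytometry quantifies lipid droplet accumulation (500–530 nm total intensity; droplet/cell object ratio) in oleic acid-fed (400 uM added) Drosophila S3 cells treated with a concentration series. 20 uM Triacsin C defined 100% inhibition.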

[1] = measured here: lipid fluorescence (Fed channel) AC50, cells fed with added oleic acid
[2] = measured here: cell number channel AC50, cells fed with added oleic acid

| SMILES | cell number change [%] | AC50 [1] | AC50 [2] |
| --- | --- | --- | --- |
| CNS(=O)(=O)/C=C/c1ccccc1 | -25.3 |  |  |
| Cc1ccc(-c2nc3[nH]c(=O)cc(NC(=O)C(C)C)n3n2)cc1 | 17.8 |  |  |
| Nc1cc(C(F)(F)F)ccc1NCCc1ccccn1 | -28.4 | 20.6 µM [falling, single point] |  |
| Fc1ccc(N2CCN(C(=S)NCC3CCCO3)CC2)cc1 (stereo unspecified) | 101 |  |  |
| CCOCCCNC(=S)N1C2CCC1CC(NC(=O)NC13CC4CC(CC(C4)C1)C3)C2 (stereo unspecified) | -30.5 | 29.1 µM [falling, single point] |  |
| CCCNC(=O)c1ccc2c(=O)c(O)c(-c3ccc(F)cc3)[nH]c2c1 |  | 16.4 µM [falling, partial curve] |  |
| CC(=O)Nc1ccc(S(=O)(=O)NCC(=O)OCC(=O)N2CCc3ccccc32)cc1 | 32.1 |  | 29.1 µM [rising, single point] |
| CCCCCC(=O)c1ccc(O)cc1O | 21.7 | 4.11 µM [rising, full curve] |  |
| Cc1oc(-c2ccc(Cl)cc2)nc1CS(=O)CC(=O)NC(C)c1ccccc1 (stereo unspecified) | -16.7 |  |  |
| Cc1nnc(N2CCCC(C(=O)NCc3cccc(F)c3)C2)c2nn(-c3ccccc3)c(C)c12 (stereo unspecified) | 25.9 | 3.66 µM [rising, full curve] | 0.0411 µM [rising, full curve, poor fit] |
| CCn1cc(S(=O)(=O)CC(=O)Nc2ccc(OC)cc2)c2ccccc21 | 13.1 | 4.11 µM [rising, single point] |  |
| COc1cccc(/C=C/C(=O)Nc2cccc(C(C)=O)c2)c1OC | 18.6 | 6.51 µM [falling, single point] |  |
| CCOC(=O)c1[nH]c(COC(=O)c2ccccc2NC(=O)c2ccco2)c(C(=O)OCC)c1C | 23.2 |  | 0.82 µM [rising, full curve, poor fit] |
| CCc1ccc(S(=O)(=O)Nc2c(C)n(C)n(-c3ccccc3)c2=O)cc1 | 4.17 | 29.1 µM [rising, single point] |  |
| CCOc1ccccc1NC(=O)N1CCCC1C(=O)NCc1cccs1 (stereo unspecified) | 17.1 | 0.651 µM [rising, single point] |  |
| N/C(Cc1ccc([N+](=O)[O-])cc1)=N\OC(=O)CC1CCCCC1 | 117 | 0.058 µM [falling, full curve, poor fit] | 29.1 µM [rising, single point] |
| O=C(CCc1ccccc1)NC(NC(=S)Nc1ccc(Cl)cc1)C(Cl)(Cl)Cl (stereo unspecified) | 50.7 |  | 18.4 µM [rising, single point] |
| Cc1ccc(CS(=O)(=O)CCC(=O)O)cc1 | -21.4 | 1.16 µM [falling, full curve] |  |
| CCOC(=O)N1CCN(C(=O)C2CCN(C(=O)c3ccc(C(C)(C)C)cc3)CC2)CC1 | -6.94 | 29.1 µM [rising, single point] |  |
| Cc1ccc(NC(=O)OCCN2CCN(Cc3ccccc3)CCC2=O)cc1 | -14 | 10.3 µM [rising, partial curve] |  |
| Cc1cc2nc(NCCCO)n(CC(=O)c3cc(C(C)(C)C)c(O)c(C(C)(C)C)c3)c2cc1C | -78.8 |  | 20.6 µM [falling, partial curve] |

| SMILES | cell number change [%] | AC50 [1] | AC50 [2] |
| --- | --- | --- | --- |
| COc1cc(NC(=O)c2ccc(Cl)cc2)c(OC)cc1NC(=O)CN1CCOCC1 | 5.63 | 16.4 µM [rising, partial curve] |  |
| Cn1c2c(c(=O)n(C)c1=O)C(c1ccc(Br)cc1)Nc1ccccc1O2 (stereo unspecified) | 39.4 | 7.31 µM [rising, partial curve, poor fit] | 0.0517 µM [rising, full curve, poor fit] |
| CCc1nnc(NC(=O)Cn2nc(-c3ccc(OC)c(OC)c3)ccc2=O)s1 | 18.9 | 2.06 µM [falling, full curve, poor fit] |  |
| COc1ccc(-c2cc(C(F)(F)F)c(C#N)c(SCC(=O)Nc3ccc(C)cc3)n2)cc1 |  |  | 0.116 µM [rising, full curve] |
| COc1ccc(-c2cn3cccnc3n2)cc1F | 2.17 |  | 0.731 µM [rising, single point] |
| CCCN1CCN(c2ccc(S(N)(=O)=O)cc2[N+](=O)[O-])CC1 | 3.65 | 20.6 µM [falling, single point] |  |
| O=C(Nc1ccc(F)cc1)N(Cc1cccs1)Cc1cc2cc3c(cc2[nH]c1=O)OCO3 | 10.2 | 0.116 µM [rising, full curve, poor fit] |  |
| O=C(Nc1nnc(-c2cccs2)o1)c1ccco1 | -2.76 | 0.651 µM [falling, full curve, poor fit] |  |
| CN(C(=O)COC(=O)c1ccccc1Nc1ccccc1)C1CCS(=O)(=O)C1 (stereo unspecified) | 3.47 | 16.4 µM [rising, single point] |  |
| CCOc1ccc(CN2CCN(Cc3[nH]c4ccccc4c3C)CC2CCO)cc1 (stereo unspecified) | -32.9 | 18.4 µM [falling, single point] | 29.1 µM [falling, single point] |
| O=C1C(Cl)=C(N2CCCCCC2)C(=O)N1c1ccc(Cl)cc1 | -14.4 |  |  |
| Cn1c(SCC(=O)NC(C)(C)C)nnc1-c1cnccn1 | -19.8 | 1.3 µM [falling, partial curve] | 6.51 µM [falling, single point] |
| C=C(C)C(=O)Nc1cccc(C2=NOC3(C2)C[C@H](C(N)=O)N(C(=O)c2ccccc2)C3)c1 (stereo partly specified) | 26.4 | 20.6 µM [rising, partial curve, poor fit] |  |
| CCOc1ccccc1NC(=O)CCc1nnc2ccc(N3CCC(C)CC3)nn12 | 5.76 |  |  |
| CC(=O)c1cc(C#N)c(SCC(=O)OC(C)(C)C)nc1C | -16.4 | 29.1 µM [falling, single point] |  |
| C[C@@H]1NC(=O)[C@H](CCC(N)=O)NC(=O)c2cc([N+](=O)[O-])cc(I)c2NCCC[C@@H](C(N)=O)NC1=O | 11 | 0.92 µM [rising, full curve, poor fit] |  |
| CCOC(=O)c1[nH]c(C)c(C(=O)N2CCN(C(=O)OCC)CC2)c1CC |  |  | 3.66 µM [falling, partial curve] |
| COc1ccc(NC(=O)C(=O)NNC(=O)COc2ccc(Cl)cc2)c(OC)c1 | 0.634 | 31.6 µM [rising, single point] |  |
| COc1ccc(OCC(=O)NNC(=O)c2cccnc2)cc1 | 18.4 | 20.6 µM [rising, single point] |  |
| COc1cccc(Nc2cc(N3CCOCC3)c3nonc3c2[N+](=O)[O-])c1 | -22.6 | 0.092 µM [falling, full curve, poor fit] | 0.092 µM [falling, full curve, poor fit] |
| CC(=O)Nc1nc2c(ncn2COCCOC(C)=O)c(=O)[nH]1 |  |  | 4.11 µM [falling, single point] |

An excerpt of these results, bar-delimited.
SMILES | cell number change [%] | AC50 [1] | AC50 [2]
Cc1cc2nc(NCCCO)n(CC(=O)c3cc(C(C)(C)C)c(O)c(C(C)(C)C)c3)c2cc1C | -78.8 |  | 20.6 µM [falling, partial curve]
COc1cc(NC(=O)c2ccc(Cl)cc2)c(OC)cc1NC(=O)CN1CCOCC1 | 5.63 | 16.4 µM [rising, partial curve] | 
Cn1c2c(c(=O)n(C)c1=O)C(c1ccc(Br)cc1)Nc1ccccc1O2 (stereo unspecified) | 39.4 | 7.31 µM [rising, partial curve, poor fit] | 0.0517 µM [rising, full curve, poor fit]
CCc1nnc(NC(=O)Cn2nc(-c3ccc(OC)c(OC)c3)ccc2=O)s1 | 18.9 | 2.06 µM [falling, full curve, poor fit] | 
COc1ccc(-c2cc(C(F)(F)F)c(C#N)c(SCC(=O)Nc3ccc(C)cc3)n2)cc1 |  |  | 0.116 µM [rising, full curve]
CCCN1CCN(c2ccc(S(N)(=O)=O)cc2[N+](=O)[O-])CC1 | 3.65 | 20.6 µM [falling, single point] | 
O=C(Nc1ccc(F)cc1)N(Cc1cccs1)Cc1cc2cc3c(cc2[nH]c1=O)OCO3 | 10.2 | 0.116 µM [rising, full curve, poor fit] | 
O=C(Nc1nnc(-c2cccs2)o1)c1ccco1 | -2.76 | 0.651 µM [falling, full curve, poor fit] | 
CN(C(=O)COC(=O)c1ccccc1Nc1ccccc1)C1CCS(=O)(=O)C1 (stereo unspecified) | 3.47 | 16.4 µM [rising, single point] | 
CCOc1ccc(CN2CCN(Cc3[nH]c4ccccc4c3C)CC2CCO)cc1 (stereo unspecified) | -32.9 | 18.4 µM [falling, single point] | 29.1 µM [falling, single point]
O=C1C(Cl)=C(N2CCCCCC2)C(=O)N1c1ccc(Cl)cc1 | -14.4 |  | 
C=C(C)C(=O)Nc1cccc(C2=NOC3(C2)C[C@H](C(N)=O)N(C(=O)c2ccccc2)C3)c1 (stereo partly specified) | 26.4 | 20.6 µM [rising, partial curve, poor fit] | 
CC(=O)c1cc(C#N)c(SCC(=O)OC(C)(C)C)nc1C | -16.4 | 29.1 µM [falling, single point] | 
C[C@@H]1NC(=O)[C@H](CCC(N)=O)NC(=O)c2cc([N+](=O)[O-])cc(I)c2NCCC[C@@H](C(N)=O)NC1=O | 11 | 0.92 µM [rising, full curve, poor fit] | 
CCOC(=O)c1[nH]c(C)c(C(=O)N2CCN(C(=O)OCC)CC2)c1CC |  |  | 3.66 µM [falling, partial curve]
COc1ccc(NC(=O)C(=O)NNC(=O)COc2ccc(Cl)cc2)c(OC)c1 | 0.634 | 31.6 µM [rising, single point] | 
COc1ccc(OCC(=O)NNC(=O)c2cccnc2)cc1 | 18.4 | 20.6 µM [rising, single point] | 
COc1cccc(Nc2cc(N3CCOCC3)c3nonc3c2[N+](=O)[O-])c1 | -22.6 | 0.092 µM [falling, full curve, poor fit] | 0.092 µM [falling, full curve, poor fit]
CC(=O)Nc1nc2c(ncn2COCCOC(C)=O)c(=O)[nH]1 |  |  | 4.11 µM [falling, single point]

Later entries:

| SMILES | cell number change [%] | AC50 [1] | AC50 [2] |
| --- | --- | --- | --- |
| O=C(CCNC(=O)N1CCn2c1nc1ccccc12)NCc1ccccc1 | 32 |  | 29.1 µM [rising, single point] |
| CCC1=NC(c2ccccc2OC)N(O)C1(C)C (stereo unspecified) | 3.18 |  |  |
| Cc1ccc(C(=O)NCCCc2ccccc2)s1 | 6.51 | 32.6 µM [rising, single point] |  |
| Cc1ccc(-c2cc(N)n3nc(-c4ccc(C)cc4)cc3n2)cc1 | -33.9 | 29.1 µM [falling, partial curve, poor fit] | 29.1 µM [falling, single point] |
| Cc1ccc2c(c1)C1CN(C)CCC1N2C(=O)c1cccc(S(=O)(=O)N2CC(C)CC(C)C2)c1 (stereo unspecified) | 30.9 | 0.58 µM [rising, single point] |  |
| O=C(OCC(=O)N1CCCC1)c1ccc(Cl)c([N+](=O)[O-])c1 | -19.2 |  |  |
| CCCOc1ccc(C(CC(=O)O)NC(=O)c2cccs2)cc1 (stereo unspecified) | 0.724 | 0.00731 µM [falling, full curve, poor fit] | 0.231 µM [falling, full curve] |
| Cc1cc(Cl)ccc1NC(=S)NCc1ccc(Cl)cc1 | -46.7 |  |  |
| COC(=O)C1C(=O)C(C(=O)/C=C/c2ccccc2)C(=O)CC1(C)C (stereo unspecified) | 2.57 |  |  |
| CCOc1ccc(-c2csc(NC(=O)c3cccc(N4C(=O)CCC4=O)c3)n2)cc1 | -9.51 |  |  |
| O=C(NCc1cccs1)C1CCC(CNS(=O)(=O)c2cccc3nsnc23)CC1 (stereo unspecified) | 12.1 | 0.00517 µM [falling, full curve, poor fit] |  |
| COc1cccc(C(=O)NCC(=O)NCc2cc(=O)n(C)c(=O)n2C)c1 | -5.5 | 10.3 µM [rising, partial curve] |  |
| CCn1c(COc2ccc(=O)n(-c3ccccc3)n2)nnc1SCC(=O)OC | 32.5 | 0.058 µM [rising, full curve, poor fit] | 0.231 µM [rising, full curve] |
| CCc1ccc(OCC(=O)OCC(=O)c2c(N)n(C)c(=O)n(C)c2=O)cc1 | -8.4 | 1.03 µM [falling, full curve] |  |
| O=C(O)CCCNC(=O)c1nn(Cc2ccccc2)c(=O)c2ccccc12 | 18.8 | 0.164 µM [falling, partial curve, poor fit] |  |
| O=P(Cc1ccccc1)(c1ccccc1)c1ccccc1 | 28.9 | 29.1 µM [rising, single point] |  |
| O=C(Cc1ccc(-c2ccccc2)cc1)N1CCOCC1 | 10.8 | 29.1 µM [falling, single point] |  |
| Cc1ccc(S(=O)(=O)CCSc2nccn2C)cc1 | -46.5 | 16.4 µM [falling, single point] | 13 µM [falling, partial curve, poor fit] |
| O=C1NC(=O)C2C1C(c1ccc([N+](=O)[O-])cc1)=NN2Cc1ccccc1 (stereo unspecified) | -6.89 |  |  |
